Assay results as given in PubChem BioAssay AID2551 (National Center for Advancing Translational Sciences (NCATS), 2010).
Among all 310,000 compounds or so, about 17,000 (5.5%) were called active. All entries are inconclusive by the source's own rule. Clear calls are listed elsewhere. Calls come from the whole dose curve; as a rule, active = well fitted inhibition curve with a large enough effect; inconclusive = small, poorly fitted or top-dose-only effect, or effect the other way; inactive = no such curve, though single readings can be large or run the other way. Some of these compounds have results that are not shown, active ones among them.
Note: nearly all actives have a fitted effect of over 60% in size.
Potency is the fitted concentration of half-maximal effect.

Sequences of proteins named here, by UniProt entry; tags and fusion partners are left off.
UniProt P51450, whole entry: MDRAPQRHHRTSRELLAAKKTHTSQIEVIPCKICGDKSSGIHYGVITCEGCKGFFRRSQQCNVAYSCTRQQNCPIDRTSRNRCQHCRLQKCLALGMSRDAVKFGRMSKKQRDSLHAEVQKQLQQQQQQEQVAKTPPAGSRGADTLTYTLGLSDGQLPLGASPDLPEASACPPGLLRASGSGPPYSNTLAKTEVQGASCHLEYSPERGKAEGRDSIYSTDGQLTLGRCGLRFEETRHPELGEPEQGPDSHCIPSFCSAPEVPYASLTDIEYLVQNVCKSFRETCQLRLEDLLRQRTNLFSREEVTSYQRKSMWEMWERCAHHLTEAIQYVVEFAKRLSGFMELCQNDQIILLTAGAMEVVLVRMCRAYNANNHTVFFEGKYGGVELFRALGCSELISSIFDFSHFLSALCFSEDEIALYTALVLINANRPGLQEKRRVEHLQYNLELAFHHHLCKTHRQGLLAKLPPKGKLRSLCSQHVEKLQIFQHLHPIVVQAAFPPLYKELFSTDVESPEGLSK

What follows are compounds tested against Nuclear receptor ROR-gamma (Mus musculus) (UniProt P51450) (assay: qHTS for inhibitors of ROR gamma transcriptional activity). Details: Drosophila S2 Gal4-RORgamma UAS-luciferase reporter, 20 h.
In the case of `O=C(NCC1(N2CCCCC2)CCCCC1)c1cccc(Br)c1`, the Potency is reported as inconclusive: 28.2 µM.
